Experimental data taken from article PMC5750471.
Results are given in words; binding and its absence hold for the method and conditions named. In cells and extracts the contact can be indirect. Sequences can lack the tags named with a protein.

Chains of the proteins cited; added tags and fusions are not shown. Residues count along the entry.
UniProt Q92542, residues 34-709: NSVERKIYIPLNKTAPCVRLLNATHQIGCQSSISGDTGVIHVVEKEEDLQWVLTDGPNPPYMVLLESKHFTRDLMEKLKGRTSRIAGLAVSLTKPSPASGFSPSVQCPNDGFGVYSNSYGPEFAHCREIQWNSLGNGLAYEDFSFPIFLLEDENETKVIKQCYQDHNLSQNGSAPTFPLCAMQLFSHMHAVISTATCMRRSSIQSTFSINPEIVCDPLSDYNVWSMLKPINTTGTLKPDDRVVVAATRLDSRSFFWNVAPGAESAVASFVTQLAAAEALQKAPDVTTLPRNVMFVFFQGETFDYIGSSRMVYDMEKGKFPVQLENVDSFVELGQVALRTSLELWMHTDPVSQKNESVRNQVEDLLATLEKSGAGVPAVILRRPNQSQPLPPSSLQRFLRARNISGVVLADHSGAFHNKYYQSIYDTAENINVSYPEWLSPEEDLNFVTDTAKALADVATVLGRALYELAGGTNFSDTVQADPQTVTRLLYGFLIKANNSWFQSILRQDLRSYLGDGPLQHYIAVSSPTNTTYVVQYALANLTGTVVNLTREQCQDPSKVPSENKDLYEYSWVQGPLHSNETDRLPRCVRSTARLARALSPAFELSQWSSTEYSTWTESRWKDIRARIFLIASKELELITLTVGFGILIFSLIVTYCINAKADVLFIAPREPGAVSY

Biological target: T1, TREM2 (triggering receptor expressed on myeloid cells 2) with a Myc-tag at the C terminus, wild type (human) (UniProt Q9NZC2)
T1 sequence: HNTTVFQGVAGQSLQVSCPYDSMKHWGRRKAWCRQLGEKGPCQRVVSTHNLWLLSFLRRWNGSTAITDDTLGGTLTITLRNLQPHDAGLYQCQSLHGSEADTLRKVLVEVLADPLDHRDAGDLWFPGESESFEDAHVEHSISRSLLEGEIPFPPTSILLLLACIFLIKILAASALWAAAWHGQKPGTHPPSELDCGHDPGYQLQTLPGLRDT
Experiment: co-IP; HEK293-TREM2 cells transfected with PS1; lysis in 1% Nonidet P-40, 50 mM Tris-HCl, 150 mM NaCl, 2 mM EDTA, pH 7.4; IP with Myc antibody or control IgG, Dynabeads Protein G, 4 °C overnight; blots with Ab14, anti-PS1 loop and NCT antibodies

Substance: nicastrin (NCT) (from UniProt Q92542 34-709)
- binding: no binding
